Measured values reported in patent publication US20170114124A1.
These are yes or no findings as the source states them, for the method shown. Binding seen in cells or lysates may run through a third protein. Some binding calls cover weakened binding; strength is not graded here. Sequences can lack the tags named with a protein.

The chains behind the UniProt entries cited, without tags or fusion partners. Where a name states a change or a piece, a line headed by the entry shows the natural chain unless it says otherwise.
UniProt P60953: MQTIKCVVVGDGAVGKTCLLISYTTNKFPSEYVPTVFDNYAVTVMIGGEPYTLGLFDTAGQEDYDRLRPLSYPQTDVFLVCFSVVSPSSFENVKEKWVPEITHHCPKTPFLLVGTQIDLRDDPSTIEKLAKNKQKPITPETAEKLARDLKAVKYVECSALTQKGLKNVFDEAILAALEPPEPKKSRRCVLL

Tests used:
[1] = target: myc-tagged Cdc42(S88D/K94P) double mutant (human) (UniProt P60953); test: GST pull-down, myc-Cdc42 from HEK293 cells
[2] = target: myc-tagged Cdc42(S88D/K94P) double mutant (human) (UniProt P60953); test: GST pull-down
myc-tagged RhoA (human) = test: GST pull-down, myc-RhoA from HEK293 lysate

Measured: binding

B1: GST-tagged Myo9b RhoGAP domain, wild-type (protein, not shown: a dimerising Fc or GST)
chain: FGVCVDSLTSDKASVPIVLEKLLEHVEMHGLYTEGLYRKSGAANRTRELRQALQTDPAAVKLENFPIHAITGVLKQWLRELPEPLMTFAQYGDFLRAVELPEKQEQLAAIYAVLEHLPEANHNSLERLIFHLVKVALLEDVNRMSPGALAIIFAPCLLRCPDNSDPLTSMKDVLKITTCVEMLIKEQMRKYKVKMEEISQLE
binds: all assays above
